Some of the results follow. Further columns of the screen follow, without active or inactive calls. Most of these compounds were active or inconclusive in the main read-out, so they are no random draw.
Assay: qHTS Multiplex Assay to Identify Dual Action Probes in a Cell Model of Huntington: Cytotoxicity in HTT Striatal Cells
Conditions: STHdhQ111/111 striatal cells, serum-free, ATP luminescence, 24 h
Excerpt: NIH Chemical Genomics Center [NCGC] NIH Molecular Libraries Probe Production centers Network [MLPCN] MLPCN Grant: MH084839-01A1 Assay Submitter (PI): Wei Zheng NCGC Assay Overview: Huntington's disease is a neurodegenerative disorder caused by a trinucleotide repeat expansion in Exon 1 of the Huntingtin gene. The CAG trinucleotide encodes glutamine and polyglutamine expansions cause cell death in selective areas of the brain. Huntington polyglutamine repeats have the tendency to form aggregates which are observable in later stages of the disease. The exact nature of the aggregates, whether toxic, protective, or insignificant, is unclear. A stable PC12 cell line containing a gene fusion of Exon 1 of the Huntingtin gene linked to GFP under the control of the inducible ecdysone promoter were used as the cell-based model of Huntington Disease for high throughput screening. Exon 1 of the Huntingtin gene contained an expansion of 103 polyglutamines (Q103) which, when expressed, caused cell death and distinct, bright GFP aggregates. The amount of cell death and the size and intensity of GFP aggregates increased over time and induction level. The cell death were quantified with a measurement of ATP content in the cells. A maximal 40-50% of cell death was observed when the Huntington gene was induced in this cell line. We optimized this assay in a homogeneous 1536 well format. A quantitative high throughput screen (qHTS) was conducted on the PC12 cells which were induced to express the toxic fusion construct. Small molecules which prevented cell death were identified by using a luminescent ATP quantification method (Perkin Elmer's ATPlite). This assay examines influence on cytotoxicity induced by serum deprivation in normal and Huntington striatal cells.
Freshlay passaged STHdhQ7/7 cells and mutant STHdhQ111/111 Huntington striatal cells were plated at a density of 20,000 cells/well in complete media and allowed to recover overnight at 33C. The next day, media was replaced with serum containing media or serum free media containing the compound. After 24 hours of incubation at 33 C, cells were assayed for ATP content using the Cell Titer-GLO ATP assay from Promega (cat # G7571). ATP/Toxicity Assay in Serum Free Media (SFM) (96 well plate format) 1. Plate 20,000 cells/well and incubate the cells in complete (w/serum) media overnight 2. Remove media, wash twice with PBS and add the SFM w/ or w/o the compound 3. Incubate at 33C; cells can be incubated at 39C for a more dramatic effect 4. ATP measurements after […] treatment, per kit protocol

[1] = measured here: Q7/7 cells, at 30 µM
[2] = measured here: Q7/7 cells, at 60 µM
[3] = measured here: Q111/111 cells, at 60 µM
[4] = measured here: Q7/7 cells, FBS, at 30 µM
[5] = measured here: Q7/7 cells, FBS, at 60 µM
[6] = measured here: Q111/111 cells, FBS, at 30 µM
[7] = measured here: Q111/111 cells, FBS, at 60 µM

Compound	viability change [1]	viability change [2]	viability change [3]	viability change [4]	viability change [5]	viability change [6]	viability change [7]
Cn1nnnc1Sc1ncnc2scc(-c3ccc(F)cc3)c12	42%	-74%	-99%	3%	-42%	0%	-99%
Cn1nnnc1Sc1ncnc2scc(-c3ccc(Cl)cc3)c12	-73%	-69%	-97%	-47%	-80%	-81%	-97%
Cc1ccc(-c2csc3ncnc(Sc4nnnn4C)c23)cc1	-35%	-76%	-98%	7%	-72%	9%	-88%

From PubChem BioAssay AID2713 (National Center for Advancing Translational Sciences (NCATS), 2010)
